# Reference: article PMC9820469
# Chains of the proteins cited; added tags and fusions are not shown.
# UniProt P17096: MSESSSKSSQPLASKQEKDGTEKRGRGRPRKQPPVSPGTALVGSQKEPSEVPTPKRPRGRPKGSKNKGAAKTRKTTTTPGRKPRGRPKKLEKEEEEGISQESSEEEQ
# These are yes or no findings as the source states them, for the method shown. Binding seen in cells or lysates may run through a third protein. Some results given as binding are weak or reduced against the parent protein; the word gives no strength.
# Molecular target: High mobility group A1 (HMGA1) (human (endogenous in MDA-MB-231)) (UniProt P17096)
# Test: co-IP; α-HMGA1 (negative control α-GFP) on protein G agarose beads; 500 μg MDA-MB-231 cell lysate digested with DNase I (1100 U per 550 μg, 20 min, 37 °C), 3 h at 4 °C in Lysis Buffer; washed three times in Tris/HCl pH seven; western blot with α-HMGA1 and α-NPAT; a lysate not treated with DNase I was run in parallel
binder,measurement,value
"nuclear protein of the ataxia-telangiectasia mutated locus (NPAT) (protein, UniProt Q14207 1-1427) MLLPSDVARLVLGYLQQENLISTCQTFILESSDLKEYAEHCTDEGFIPACLLSLFGKNLTTILNEYVAMKTKETSNNVPAIMSSLWKKLDHTLSQIRSMQSSPRFAGSQRARTRTGIAEIKRQRKLASQTAPASAELLTLPYLSGQFTTPPSTGTQVTRPSGQISDPSRSYFVVVNHSQSQDTVTTGEALNVIPGAQEKKAHASLMSPGRRKSESQRKSTTLSGPHSTIRNFQDPNAFAVEKQMVIENAREKILSNKSLQEKLAENINKFLTSDNNIAQVPKQTDNNPTEPETSIDEFLGLPSEIHMSEEAIQDILEQTESDPAFQALFDLFDYGKTKNNKNISQSISSQPMESNPSIVLADETNLAVKGSFETEESDGQSGQPAFCTSYQNDDPLNALKNSNNHDVLRQEDQENFSQISTSIQKKAFKTAVPTEQKCDIDITFESVPNLNDFNQRGNSNAECNPHCAELYTNQMSTETEMAIGIEKNSLSSNVPSESQLQPDQPDIPITSFVSLGCEANNENLILSGKSSQLLSQDTSLTGKPSKKSQFCENSNDTVKLKINFHGSKSSDSSEVHKSKIEINVLEPVMSQLSNCQDNSCLQSEILPVSVESSHLNVSGQVEIHLGDSLSSTKQPSNDSASVELNHTENEAQASKSENSQEPSSSVKEENTIFLSLGGNANCEKVALTPPEGTPVENSHSLPPESVCSSVGDSHPESQNTDDKPSSNNSAEIDASNIVSLKVIISDDPFVSSDTELTSAVSSINGENLPTIILSSPTKSPTKNAELVKCLSSEETVGAVVYAEVGDSASMEQSLLTFKSEDSAVNNTQNEDGIAFSANVTPCVSKDGGYIQLMPATSTAFGNSNNILIATCVTDPTALGTSVSQSNVVVLPGNSAPMTAQPLPPQLQTPPRSNSVFAVNQAVSPNFSQGSAIIIASPVQPVLQGMVGMIPVSVVGQNGNNFSTPPRQVLHMPLTAPVCNRSIPQFPVPPKSQKAQGLRNKPCIGKQVNNLVDSSGHSVGCHAQKTEVSDKSIATDLGKKSEETTVPFPEESIVPAAKPCHRRVLCFDSTTAPVANTQGPNHKMVSQNKERNAVSFPNLDSPNVSSTLKPPSNNAIKREKEKPPLPKILSKSESAISRHTTIRETQSEKKVSPTEIVLESFHKATANKENELCSDVERQKNPENSKLSIGQQNGGLRSEKSIASLQEMTKKQGTSSNNKNVLSVGTAVKDLKQEQTKSASSLITTEMLQDIQRHSSVSRLADSSDLPVPRTPGSGAGEKHKEEPIDIIKAPSSRRFSEDSSTSKVMVPPVTPDLPACSPASETGSENSVNMAAHTLMILSRAAISRTTSATPLKDNTQQFRASSRSTTKKRKIEELDERERNSRPSSKNLTNSSIPMKKKKIKKKKLPSSFPAGMDVDKFLLSLHYDE",binding,binds
